From the supplement of paper PMC10849652
Some of the results follow.

Amino acid sequences for entries named in this document (tags omitted). A change or cut given only in a name is not applied to a line headed by its entry.
UniProt Q15811: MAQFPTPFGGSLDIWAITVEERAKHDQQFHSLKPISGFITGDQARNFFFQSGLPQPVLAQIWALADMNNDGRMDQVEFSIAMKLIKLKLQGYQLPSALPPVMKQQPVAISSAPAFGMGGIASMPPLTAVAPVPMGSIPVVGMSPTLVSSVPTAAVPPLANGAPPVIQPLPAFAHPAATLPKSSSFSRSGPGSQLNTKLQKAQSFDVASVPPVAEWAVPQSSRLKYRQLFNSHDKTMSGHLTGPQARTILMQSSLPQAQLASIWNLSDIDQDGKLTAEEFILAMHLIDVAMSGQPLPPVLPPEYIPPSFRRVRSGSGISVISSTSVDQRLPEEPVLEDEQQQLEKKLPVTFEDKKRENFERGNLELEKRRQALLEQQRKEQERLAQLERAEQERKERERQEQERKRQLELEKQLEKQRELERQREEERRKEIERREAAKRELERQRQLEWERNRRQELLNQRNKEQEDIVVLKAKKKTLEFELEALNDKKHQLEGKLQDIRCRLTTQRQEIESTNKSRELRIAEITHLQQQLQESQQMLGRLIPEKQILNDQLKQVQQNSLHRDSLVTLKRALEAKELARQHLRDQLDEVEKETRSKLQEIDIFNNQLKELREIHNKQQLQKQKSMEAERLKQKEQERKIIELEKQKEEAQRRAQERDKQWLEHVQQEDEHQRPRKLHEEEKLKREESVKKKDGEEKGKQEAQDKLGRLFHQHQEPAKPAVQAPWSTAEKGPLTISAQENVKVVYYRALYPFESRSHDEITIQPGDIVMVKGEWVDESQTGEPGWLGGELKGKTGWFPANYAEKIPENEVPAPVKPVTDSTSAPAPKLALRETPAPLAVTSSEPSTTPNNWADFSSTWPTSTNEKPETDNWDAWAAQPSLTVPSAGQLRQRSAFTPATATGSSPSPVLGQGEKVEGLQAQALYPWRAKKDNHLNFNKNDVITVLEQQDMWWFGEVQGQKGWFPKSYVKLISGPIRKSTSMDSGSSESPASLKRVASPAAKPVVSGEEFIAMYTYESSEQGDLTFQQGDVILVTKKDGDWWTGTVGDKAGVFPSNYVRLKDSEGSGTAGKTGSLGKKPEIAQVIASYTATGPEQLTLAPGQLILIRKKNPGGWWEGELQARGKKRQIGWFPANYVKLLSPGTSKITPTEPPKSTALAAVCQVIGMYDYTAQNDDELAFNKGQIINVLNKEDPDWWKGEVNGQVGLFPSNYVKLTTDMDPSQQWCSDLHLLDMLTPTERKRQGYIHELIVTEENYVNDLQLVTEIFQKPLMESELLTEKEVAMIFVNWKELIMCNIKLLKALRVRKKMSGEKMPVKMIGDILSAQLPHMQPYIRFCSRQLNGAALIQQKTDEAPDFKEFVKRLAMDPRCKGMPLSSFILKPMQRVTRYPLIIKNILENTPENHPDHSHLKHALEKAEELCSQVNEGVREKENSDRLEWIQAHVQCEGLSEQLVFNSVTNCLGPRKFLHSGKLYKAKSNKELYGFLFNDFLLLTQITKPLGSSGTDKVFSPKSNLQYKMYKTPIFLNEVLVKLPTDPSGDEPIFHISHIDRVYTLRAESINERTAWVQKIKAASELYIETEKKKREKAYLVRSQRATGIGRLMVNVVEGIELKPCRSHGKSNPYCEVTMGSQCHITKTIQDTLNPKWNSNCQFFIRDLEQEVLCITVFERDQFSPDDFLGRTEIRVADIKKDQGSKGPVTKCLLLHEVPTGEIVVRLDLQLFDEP
UniProt Q8NFY9: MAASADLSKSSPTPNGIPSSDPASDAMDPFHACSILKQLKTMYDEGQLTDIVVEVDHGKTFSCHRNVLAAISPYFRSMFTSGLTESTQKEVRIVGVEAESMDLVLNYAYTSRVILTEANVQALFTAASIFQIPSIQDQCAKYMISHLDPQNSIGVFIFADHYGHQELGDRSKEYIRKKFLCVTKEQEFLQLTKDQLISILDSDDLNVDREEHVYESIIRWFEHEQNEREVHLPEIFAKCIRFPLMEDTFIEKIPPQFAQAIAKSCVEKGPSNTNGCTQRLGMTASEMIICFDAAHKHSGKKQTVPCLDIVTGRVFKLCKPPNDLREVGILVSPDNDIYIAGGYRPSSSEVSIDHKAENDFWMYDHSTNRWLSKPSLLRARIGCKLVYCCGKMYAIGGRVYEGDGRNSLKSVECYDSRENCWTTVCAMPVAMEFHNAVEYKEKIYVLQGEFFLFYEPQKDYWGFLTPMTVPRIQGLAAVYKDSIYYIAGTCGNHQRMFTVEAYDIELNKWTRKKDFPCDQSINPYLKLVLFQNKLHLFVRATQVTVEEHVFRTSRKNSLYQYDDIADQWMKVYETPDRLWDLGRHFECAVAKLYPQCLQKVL
UniProt Q96AB3: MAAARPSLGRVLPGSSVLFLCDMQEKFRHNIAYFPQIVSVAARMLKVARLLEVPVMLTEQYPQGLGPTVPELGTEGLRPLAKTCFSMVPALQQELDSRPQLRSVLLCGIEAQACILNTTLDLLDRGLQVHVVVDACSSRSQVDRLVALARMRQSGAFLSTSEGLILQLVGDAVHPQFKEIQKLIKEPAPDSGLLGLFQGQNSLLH
UniProt Q9NPH2: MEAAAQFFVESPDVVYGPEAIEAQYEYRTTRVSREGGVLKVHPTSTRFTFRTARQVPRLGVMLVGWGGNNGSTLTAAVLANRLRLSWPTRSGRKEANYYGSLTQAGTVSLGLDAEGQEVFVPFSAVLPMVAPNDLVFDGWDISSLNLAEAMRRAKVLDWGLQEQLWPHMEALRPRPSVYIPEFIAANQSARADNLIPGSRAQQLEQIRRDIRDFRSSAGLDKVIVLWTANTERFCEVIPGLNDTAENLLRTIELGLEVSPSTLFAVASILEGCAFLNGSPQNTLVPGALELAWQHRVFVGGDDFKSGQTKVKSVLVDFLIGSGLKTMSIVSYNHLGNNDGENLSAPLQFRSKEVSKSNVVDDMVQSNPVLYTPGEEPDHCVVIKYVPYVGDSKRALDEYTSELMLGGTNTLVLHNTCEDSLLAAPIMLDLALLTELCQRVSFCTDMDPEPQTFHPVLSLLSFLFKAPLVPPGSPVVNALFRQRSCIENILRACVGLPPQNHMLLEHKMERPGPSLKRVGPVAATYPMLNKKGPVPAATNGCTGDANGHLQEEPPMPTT
UniProt Q68E01, whole entry, looked up: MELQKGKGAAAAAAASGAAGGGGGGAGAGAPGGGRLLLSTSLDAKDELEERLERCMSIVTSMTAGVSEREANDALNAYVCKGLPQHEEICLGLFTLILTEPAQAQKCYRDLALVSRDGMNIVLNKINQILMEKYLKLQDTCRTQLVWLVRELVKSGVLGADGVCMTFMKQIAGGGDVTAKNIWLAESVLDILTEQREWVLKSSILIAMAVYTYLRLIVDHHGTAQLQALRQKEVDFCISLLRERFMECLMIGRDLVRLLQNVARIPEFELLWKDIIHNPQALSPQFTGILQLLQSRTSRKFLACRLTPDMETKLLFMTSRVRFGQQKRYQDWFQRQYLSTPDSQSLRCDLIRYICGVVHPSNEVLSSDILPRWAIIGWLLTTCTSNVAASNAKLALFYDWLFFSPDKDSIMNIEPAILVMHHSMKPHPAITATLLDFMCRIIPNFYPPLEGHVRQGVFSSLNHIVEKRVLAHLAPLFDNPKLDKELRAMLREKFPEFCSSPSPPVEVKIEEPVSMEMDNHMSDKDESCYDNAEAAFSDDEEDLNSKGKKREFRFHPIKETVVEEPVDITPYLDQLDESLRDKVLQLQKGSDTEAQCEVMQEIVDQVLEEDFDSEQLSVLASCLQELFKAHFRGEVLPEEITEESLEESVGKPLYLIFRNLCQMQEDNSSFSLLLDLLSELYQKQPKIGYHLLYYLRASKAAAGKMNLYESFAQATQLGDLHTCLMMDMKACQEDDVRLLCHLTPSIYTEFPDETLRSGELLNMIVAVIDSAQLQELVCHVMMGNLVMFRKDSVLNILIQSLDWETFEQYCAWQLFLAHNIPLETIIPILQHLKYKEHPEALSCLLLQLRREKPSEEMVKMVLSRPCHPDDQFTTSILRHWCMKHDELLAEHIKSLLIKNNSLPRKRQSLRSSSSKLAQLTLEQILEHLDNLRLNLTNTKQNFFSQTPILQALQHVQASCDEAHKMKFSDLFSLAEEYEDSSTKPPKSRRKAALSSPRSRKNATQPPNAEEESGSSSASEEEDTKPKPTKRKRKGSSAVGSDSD
UniProt Q9NZM3: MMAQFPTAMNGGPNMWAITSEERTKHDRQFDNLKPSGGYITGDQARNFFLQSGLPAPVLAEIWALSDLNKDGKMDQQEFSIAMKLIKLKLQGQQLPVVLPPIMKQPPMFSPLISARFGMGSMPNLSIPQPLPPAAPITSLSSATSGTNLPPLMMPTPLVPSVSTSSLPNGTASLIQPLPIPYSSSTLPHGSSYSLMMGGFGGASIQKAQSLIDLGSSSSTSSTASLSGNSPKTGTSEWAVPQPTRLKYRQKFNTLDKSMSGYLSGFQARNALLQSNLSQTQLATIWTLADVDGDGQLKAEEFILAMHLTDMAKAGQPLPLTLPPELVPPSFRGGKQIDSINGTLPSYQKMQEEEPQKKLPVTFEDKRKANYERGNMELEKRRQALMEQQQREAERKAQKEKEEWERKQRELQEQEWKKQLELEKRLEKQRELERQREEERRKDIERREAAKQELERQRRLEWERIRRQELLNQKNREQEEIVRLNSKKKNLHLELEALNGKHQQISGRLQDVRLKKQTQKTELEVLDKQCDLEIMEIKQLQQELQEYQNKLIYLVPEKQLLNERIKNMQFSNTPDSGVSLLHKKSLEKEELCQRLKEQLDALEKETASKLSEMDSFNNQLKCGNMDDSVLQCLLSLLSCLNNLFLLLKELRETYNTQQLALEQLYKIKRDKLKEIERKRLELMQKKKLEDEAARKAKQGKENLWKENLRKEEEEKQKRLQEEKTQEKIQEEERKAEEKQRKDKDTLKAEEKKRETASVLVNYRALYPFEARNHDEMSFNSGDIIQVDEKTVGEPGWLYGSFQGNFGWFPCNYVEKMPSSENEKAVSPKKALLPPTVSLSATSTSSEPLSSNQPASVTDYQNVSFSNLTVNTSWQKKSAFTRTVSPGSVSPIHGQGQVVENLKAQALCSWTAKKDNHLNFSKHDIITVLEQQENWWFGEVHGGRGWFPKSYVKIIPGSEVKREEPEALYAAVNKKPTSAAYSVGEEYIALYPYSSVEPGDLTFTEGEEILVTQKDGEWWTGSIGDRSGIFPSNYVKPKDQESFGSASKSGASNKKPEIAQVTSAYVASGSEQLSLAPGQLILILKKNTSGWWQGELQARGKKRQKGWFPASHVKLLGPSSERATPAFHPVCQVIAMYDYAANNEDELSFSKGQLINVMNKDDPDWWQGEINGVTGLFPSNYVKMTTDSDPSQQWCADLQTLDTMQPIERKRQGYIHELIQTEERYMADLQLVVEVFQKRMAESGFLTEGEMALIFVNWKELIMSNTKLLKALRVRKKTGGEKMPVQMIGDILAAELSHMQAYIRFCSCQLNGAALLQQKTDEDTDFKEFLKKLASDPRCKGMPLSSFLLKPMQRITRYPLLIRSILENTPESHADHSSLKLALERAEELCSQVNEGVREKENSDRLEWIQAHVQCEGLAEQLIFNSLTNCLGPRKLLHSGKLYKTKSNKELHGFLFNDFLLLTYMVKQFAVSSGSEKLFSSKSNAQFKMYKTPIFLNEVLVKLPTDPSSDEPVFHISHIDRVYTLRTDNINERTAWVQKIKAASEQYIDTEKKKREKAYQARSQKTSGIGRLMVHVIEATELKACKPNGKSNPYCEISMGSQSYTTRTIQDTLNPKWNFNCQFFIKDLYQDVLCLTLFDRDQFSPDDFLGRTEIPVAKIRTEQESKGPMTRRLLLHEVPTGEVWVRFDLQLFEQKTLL
UniProt O43736: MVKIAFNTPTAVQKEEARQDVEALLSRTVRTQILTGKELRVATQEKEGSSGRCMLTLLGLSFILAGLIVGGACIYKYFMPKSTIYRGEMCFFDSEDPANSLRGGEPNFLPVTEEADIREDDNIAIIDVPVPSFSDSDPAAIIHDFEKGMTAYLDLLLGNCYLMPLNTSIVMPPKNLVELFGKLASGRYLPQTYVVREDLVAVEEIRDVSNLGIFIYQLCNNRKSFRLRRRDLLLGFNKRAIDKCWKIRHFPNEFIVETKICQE

Assays:
Experiment in all cases: log2 fold change, soluble protein after heating vs DMSO (PISA); higher = thermal stabilisation; K562 lysate, 10 uM; active = over 0.2 and 3.5 SD of the protein, either way, in both replicates (recomputed)
[1] = compound: C1=CC=C(C=C1)[C@H](COC2=CC3=C(C=C2)NC(=O)N3)NC(=O)C4=CC=CN(C4=O)CC5=CC(=C(C=C5)F)F
Procedure, shortened: (§1)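 Thermal stability, expressed as log-two fold change relative to solvent controls, is given from duplicates. Crude K562 extract in PBS pH 7.4 with 1 mM MgCl2, at 1 mg/mL protein, was treated with 10 μM compound for 30 min and heated in aliquots for 3 min across 48°C-58°C. After pooling, adjustment to 0.5% NP-40 at 4°C and centrifugation at 21,000xg for 90 min, supernatant protein was measured by TMTpro 16plex LC-MS/MS with channel sums equalised.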

[2] = compound: CC1=C(SC2=C1C(=N[C@H](C3=NN=C(N32)C)CC(=O)N)C4=CC=C(C=C4)Cl)C
Procedure, shortened: as §1

[3] = compound: CC1=C2C(=CC=C1)N=C(N(C2=O)C3=CC=CC=C3C)CN4C=NC5=C(N=CN=C54)N
Procedure, shortened: as §1

[4] = compound: Cc1sc2c(c1C)C(c1ccc(Cl)cc1)=N[C@@H](CC(=O)OC(C)(C)C)c1nnc(C)n1-2
Procedure, shortened: as §1

[5] = compound: c1ccc([C@@H]2C[C@H]2NC2CCNCC2)cc1
Procedure, shortened: as §1

Measured: log2 fold change

ITSN1 isoform 8 (UniProt Q15811)
inactive: [1] 0.08 | [2] -0.067 | [3] -0.009 | [4] 0.048 | [5] 0.001

KBTBD8 (UniProt Q8NFY9)
inactive: [1] -0.03 | [2] 0.03 | [3] 0.074 | [4] -0.045 | [5] -0.021

ISOC2 (UniProt Q96AB3)
inactive: [1] -0.014 | [2] 0.035 | [3] 0.085 | [4] 0.03 | [5] -0.031

JMJD1C (UniProt Q15652)
inactive: [1] 0.081 | [2] -0.003 | [3] -0.012 | [4] 0.074 | [5] 0.021

ISYNA1 (UniProt Q9NPH2)
inactive: [1] 0.039 | [2] -0.017 | [3] -0.011 | [4] -0.009 | [5] -0.032

INTS3 (UniProt Q68E01)
inactive: [1] 0.017 | [2] 0.063 | [3] -0.043 | [4] -0.06 | [5] 0.074

Copied from the entries so far (2 entries):
ISYNA1 (UniProt Q9NPH2)
inactive: [1] 0.039 | [2] -0.017 | [3] -0.011 | [4] -0.009 | [5] -0.032

INTS3 (UniProt Q68E01)
inactive: [1] 0.017 | [2] 0.063 | [3] -0.043 | [4] -0.06 | [5] 0.074

Following part

ITSN2 (UniProt Q9NZM3)
inactive: [1] -0.003 | [2] 0.02 | [3] -0.021 | [4] -0.042 | [5] 0.04

IQGAP2 (UniProt Q13576)
inactive: [1] -0.013 | [2] -0.04 | [3] -0.029 | [4] 0.004 | [5] 0.023

ITM2A (UniProt O43736)
inactive: [1] -0.276 | [2] 0.156 | [3] 0.004 | [4] 0.11 | [5] 0.165
